Test results as given in publication doi:10.1101/2025.09.08.674928.
No constants are given. Whether binding was seen depends on the method and setting. In cells and extracts the contact can be indirect. A yes stands for co-enrichment or nearness to the bait. Other partners may have been found.

Biological target: SARS-CoV-2 Nsp3 (from virus infection) (SARS-CoV-2) (UniProt P0DTD1)
Assay: affinity purification with mass spectrometry

Row | Substance | binding
1 | enolase 1 (ENO1) (from UniProt P06733 1-434) (enzyme) | binds
2 | glyceraldehyde-3-phosphate dehydrogenase (GAPDH) (from UniProt P04406 1-335) (enzyme) | binds
